This passage reports binding results from paper PMC7076219.

This assay deals with T1, PSGL-1 (P-selectin glycoprotein ligand-1) (human (endogenous in KG1a)) (UniProt Q14242).
T1 sequence: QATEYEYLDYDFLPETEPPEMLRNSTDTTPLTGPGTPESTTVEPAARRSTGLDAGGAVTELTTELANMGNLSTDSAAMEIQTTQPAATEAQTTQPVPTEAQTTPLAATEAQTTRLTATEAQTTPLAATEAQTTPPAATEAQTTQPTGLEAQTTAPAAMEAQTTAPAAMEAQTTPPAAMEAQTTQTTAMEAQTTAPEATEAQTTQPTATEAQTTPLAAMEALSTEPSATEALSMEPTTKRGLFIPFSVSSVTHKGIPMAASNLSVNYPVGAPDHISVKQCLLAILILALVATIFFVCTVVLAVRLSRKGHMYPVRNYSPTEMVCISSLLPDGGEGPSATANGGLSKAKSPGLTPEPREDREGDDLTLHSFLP
Put plainly: far-Western; PSGL-1 and CD44 immunoprecipitated from KG1a lysate, reduced SDS-PAGE, PVDF; blots stained with 1 ug/ml E-selectin protein in TBST with 2 mM CaCl2; detected by Strep-tag II mAb or, for the dimeric proteins, anti-human IgG; only the binder purified.

Results are given in words; binding and its absence hold for the method and conditions named. Some binding calls cover weakened binding; strength is not graded here. Sequences can lack the tags named with a protein.

B1: E-selectin-IgG/Fc chimera produced from NS0 cells (R&D Systems) (Fc fusion, UniProt Q00690 22-557)
chain: WYYNASSELMTYDEASAYCQRDYTHLVAIQNKEEINYLNSNLKHSPSYYWIGIRKVNNVWIWVGTGKPLTEEAQNWAPGEPNNKQRNEDCVEIYIQRTKDSGMWNDERCNKKKLALCYTASCTNASCSGHGECIETINSYTCKCHPGFLGPNCEQAVTCKPQEHPDYGSLNCSHPFGPFSYNSSCSFGCKRGYLPSSMETTVRCTSSGEWSAPAPACHVVECEALTHPAHGIRKCSSNPGSYPWNTTCTFDCVEGYRRVGAQNLQCTSSGIWDNETPSCKAVTCDAIPQPQNGFVSCSHSTAGELAFKSSCNFTCEQSFTLQGPAQVECSAQGQWTPQIPVCKAVQCEALSAPQQGNMKCLPSASGPFQNGSSCEFSCEEGFELKGSRRLQCGPRGEWDSKKPTCSAVKCDDVPRPQNGVMECAHATTGEFTYKSSCAFQCNEGFSLHGSAQLECTSQGKWTQEVPSCQVVQCPSLDVPGKMNMSCSGTAVFGTVCEFTCPDDWTLNGSAVLTCGATGRWSGMPPTCEAPVSPTRP
Take B1: the binding result was “binds”.

B2: E-S6 (monomeric full-length extracellular mouse E-selectin) (domain or fragment, UniProt Q00690 22-557)
chain: B1 chain
In the case of B2, the binding result was “binds”.
